Laboratory results taken from publication PMC7124466.
Results are given in words; binding and its absence hold for the method and conditions named. Binding seen in cells or lysates may run through a third protein. Some binding calls cover weakened binding; strength is not graded here. Each block holds one binder with its values, some of them ahead of it.

Chains of the proteins cited; added tags and fusions are not shown. Residues count along the entry.
UniProt Q00711, residues 29-640: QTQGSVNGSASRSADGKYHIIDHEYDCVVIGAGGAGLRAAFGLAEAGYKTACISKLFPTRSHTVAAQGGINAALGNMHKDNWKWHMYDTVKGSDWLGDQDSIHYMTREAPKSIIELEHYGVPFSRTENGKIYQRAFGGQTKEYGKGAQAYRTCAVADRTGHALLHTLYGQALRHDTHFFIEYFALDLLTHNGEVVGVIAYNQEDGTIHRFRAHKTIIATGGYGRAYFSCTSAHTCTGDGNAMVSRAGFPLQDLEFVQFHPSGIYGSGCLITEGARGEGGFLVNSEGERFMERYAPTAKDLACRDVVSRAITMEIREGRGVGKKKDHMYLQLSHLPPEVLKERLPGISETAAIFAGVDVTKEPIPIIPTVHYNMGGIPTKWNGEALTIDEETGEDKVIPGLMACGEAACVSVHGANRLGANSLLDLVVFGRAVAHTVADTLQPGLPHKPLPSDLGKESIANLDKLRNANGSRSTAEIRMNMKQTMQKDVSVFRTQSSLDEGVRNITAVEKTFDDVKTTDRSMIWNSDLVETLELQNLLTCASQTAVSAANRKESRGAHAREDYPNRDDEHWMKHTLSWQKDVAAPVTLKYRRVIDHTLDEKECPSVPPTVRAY
UniProt P53598, residues 25-329: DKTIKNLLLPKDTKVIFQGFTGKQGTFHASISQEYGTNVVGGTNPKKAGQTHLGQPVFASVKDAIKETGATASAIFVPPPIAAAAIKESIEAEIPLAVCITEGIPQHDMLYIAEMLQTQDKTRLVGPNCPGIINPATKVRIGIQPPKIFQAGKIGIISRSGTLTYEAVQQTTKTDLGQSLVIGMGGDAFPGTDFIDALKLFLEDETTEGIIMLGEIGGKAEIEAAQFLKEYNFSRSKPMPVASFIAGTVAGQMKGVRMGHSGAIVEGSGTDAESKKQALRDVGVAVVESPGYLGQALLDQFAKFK

How the values were obtained:
Assay in all cases: cross-linking; intact purified yeast mitochondria (5 mg/ml, isotonic buffer: 250 mM sucrose, 1 mM EDTA, 10 mM MOPS-KOH, pH 7.2) crosslinked in organello with 2 mM CBDPS-H8/D8, 21 °C 10 min then on ice 110 min; Lys-Lys inter-protein crosslinked peptides enriched (SCX, avidin) and identified by LC-MS/MS, FDR 2%
[1] = target: T1, NDE1 (yeast (endogenous in mitochondria of strain YPH499)) (UniProt P40215)
T1 sequence: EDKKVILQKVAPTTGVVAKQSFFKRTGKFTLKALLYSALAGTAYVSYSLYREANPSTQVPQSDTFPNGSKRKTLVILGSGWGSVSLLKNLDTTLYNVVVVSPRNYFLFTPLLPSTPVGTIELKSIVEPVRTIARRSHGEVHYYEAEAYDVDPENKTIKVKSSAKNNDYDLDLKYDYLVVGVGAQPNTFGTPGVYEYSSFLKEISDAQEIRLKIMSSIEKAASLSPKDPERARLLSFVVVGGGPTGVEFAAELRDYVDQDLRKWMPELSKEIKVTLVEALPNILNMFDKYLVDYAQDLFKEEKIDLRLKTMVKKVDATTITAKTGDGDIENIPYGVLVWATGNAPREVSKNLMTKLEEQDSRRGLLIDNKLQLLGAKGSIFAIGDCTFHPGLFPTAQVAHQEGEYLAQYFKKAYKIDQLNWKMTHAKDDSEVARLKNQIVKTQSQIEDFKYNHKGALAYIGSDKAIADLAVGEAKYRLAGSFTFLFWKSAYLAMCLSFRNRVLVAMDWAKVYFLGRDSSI

[2] = target: SDH1 (yeast (endogenous in mitochondria of strain YPH499)) (UniProt Q00711)
[3] = target: T2, ATP3 (yeast (endogenous in mitochondria of strain YPH499)) (UniProt P38077)
T2 sequence: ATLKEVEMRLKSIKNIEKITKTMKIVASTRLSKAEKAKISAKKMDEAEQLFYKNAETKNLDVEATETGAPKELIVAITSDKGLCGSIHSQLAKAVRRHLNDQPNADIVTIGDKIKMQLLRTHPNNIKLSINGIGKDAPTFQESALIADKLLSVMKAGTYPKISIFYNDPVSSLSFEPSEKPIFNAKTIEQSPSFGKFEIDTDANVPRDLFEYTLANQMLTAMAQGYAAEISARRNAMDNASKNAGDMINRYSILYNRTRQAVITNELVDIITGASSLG

[4] = target: LSC1 (yeast (endogenous in mitochondria of strain YPH499)) (UniProt P53598)
[5] = target: T3, PHB2 (yeast (endogenous in mitochondria of strain YPH499)) (UniProt P50085)
T3 sequence: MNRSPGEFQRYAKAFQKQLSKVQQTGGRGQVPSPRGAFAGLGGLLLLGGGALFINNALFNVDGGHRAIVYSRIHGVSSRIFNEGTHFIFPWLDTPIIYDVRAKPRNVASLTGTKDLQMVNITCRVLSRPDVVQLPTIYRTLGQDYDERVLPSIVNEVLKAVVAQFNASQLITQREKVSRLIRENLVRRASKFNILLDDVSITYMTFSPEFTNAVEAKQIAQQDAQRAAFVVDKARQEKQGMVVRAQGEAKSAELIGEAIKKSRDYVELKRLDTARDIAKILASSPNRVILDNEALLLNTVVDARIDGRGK

[6] = target: T4, FMP16 (yeast (endogenous in mitochondria of strain YPH499)) (UniProt Q12497)
T4 sequence: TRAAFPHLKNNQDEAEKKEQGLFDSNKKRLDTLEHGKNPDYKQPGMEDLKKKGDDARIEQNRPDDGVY

[7] = target: T5, CBP3 (yeast (endogenous in mitochondria of strain YPH499)) (UniProt P21560)
T5 sequence: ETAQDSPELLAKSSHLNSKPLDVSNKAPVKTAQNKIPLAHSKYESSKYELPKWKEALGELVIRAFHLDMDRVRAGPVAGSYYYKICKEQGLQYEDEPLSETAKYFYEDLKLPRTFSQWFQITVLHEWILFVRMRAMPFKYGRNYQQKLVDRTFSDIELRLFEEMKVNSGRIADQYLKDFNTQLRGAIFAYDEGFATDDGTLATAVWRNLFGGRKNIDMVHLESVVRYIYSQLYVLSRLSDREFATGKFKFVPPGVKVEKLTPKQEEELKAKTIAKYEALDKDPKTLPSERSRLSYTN

- binding [1]: binds
B1: OM45 (protein, UniProt P16547 1-393)
chain: MSSRIIVGSAALAAAITASIMVREQKAKGQRREGNVSAYYNGQEYGSSAPPQLGKLHNIKQGIKEDALSLKDALLGVSQKAREEAPKVTKRVISPEEDAQTRKQLGQKAKDSSSQSIFNWGFSEAERRKAIAIGEFDTAKKRFEEAVDRNEKELLSTVMREKKAALDRASIEYERYGRARDFNELSDKLDQQERNSNPLKRLLKNNTGDANTEEAAARSVQGWGDTAQEFGREELEEAKRNASSEPSEAQKRLDELKKIKEKGWFGYNKGEQSEQQIAERVARGLEGWGETAAQLSKDEMDDLRWNYENSKKQLDKNVSDAMDSLSKAKEDLKQYGSHWWSGWTSKVDNDKQALKDEAQKKYDEALKKYDEAKNKFKEWNDKGDGKFWSSKKD

- binding [2]: binds
B2: SDH3 (protein, UniProt P33421 51-198)
chain: NVASEMNTKAAIAEEQILNKQRAKRPISPHLTIYQPQLTWYLSSLHRISLVLMGLGFYLFTILFGVSGLLGLGLTTEKVSNWYHQKFSKITEWSIKGSFAYLFAIHYGGAIRHLIWDTAKELTLKGVYRTGYALIGFTAVLGTYLLTL

- binding [3]: binds
B3: ATP15 (protein, UniProt P21306 1-62)
chain: MSAWRKAGISYAAYLNVAAQAIRSSLKTELQTASVLNRSQTDAFYTQYKNGTAASEPTPITK

- binding [4]: binds
B4: LSC2 (protein, UniProt P53312 31-427)
chain: LSIHEYRSAQLLREYGIGTPEGFPAFTPEEAFEAAKKLNTNKLVIKAQALTGGRGKGHFDTGYKSGVHMIESPQQAEDVAKEMLNHNLITKQTGIAGKPVSAVYIVKRVDTKHEAYLSILMDRQTKKPMIIASSQGGMNIEEVAERTPDAIKKFSIETSKGLSPQMAKDVAKSLGFSPDAQDEAAKAVSNLYKIFMERDATQVEINPLSEIEHDPTHKIMCTDAKFGFDDNASFRQEKIYSWRDLSQEDPDEVKAKKYDLNFVKLKGNIGCLVNGAGLAMATMDVIKLNGGDPANFLDCGGGATPETIKQGFELILSNKNVDAIFVNIFGGIVRCDYVALGLVEAARELEVRVPIVARLQGTKVEEGRDIINKSGVKIYSFDELDPAAKKVVELTQN

- binding [1]: binds
B5: CYT1 (protein, UniProt P07143 62-309)
chain: MTAAEHGLHAPAYAWSHNGPFETFDHASIRRGYQVYREVCAACHSLDRVAWRTLVGVSHTNEEVRNMAEEFEYDDEPDEQGNPKKRPGKLSDYIPGPYPNEQAARAANQGALPPDLSLIVKARHGGCDYIFSLLTGYPDEPPAGVALPPGSNYNPYFPGGSIAMARVLFDDMVEYEDGTPATTSQMAKDVTTFLNWCAEPEHDERKRLGLKTVIILSSLYLLSIWVKKFKWAGIKTRKFVFNPPKPRK

- binding [5]: binds
B6: PHB1 (protein, UniProt P40961 1-287)
chain: MSNSAKLIDVITKVALPIGIIASGIQYSMYDVKGGSRGVIFDRINGVKQQVVGEGTHFLVPWLQKAIIYDVRTKPKSIATNTGTKDLQMVSLTLRVLHRPEVLQLPAIYQNLGLDYDERVLPSIGNEVLKSIVAQFDAAELITQREIISQKIRKELSTRANEFGIKLEDVSITHMTFGPEFTKAVEQKQIAQQDAERAKFLVEKAEQERQASVIRAEGEAESAEFISKALAKVGDGLLLIRRLEASKDIAQTLANSSNVVYLPSQHSGGGNSESSGSPNSLLLNIGR

- binding [6]: binds
B7: ACO1 (protein, UniProt P19414 17-778)
chain: ATVSNLTRDSKVNQNLLEDHSFINYKQNVETLDIVRKRLNRPFTYAEKILYGHLDDPHGQDIQRGVSYLKLRPDRVACQDATAQMAILQFMSAGLPQVAKPVTVHCDHLIQAQVGGEKDLKRAIDLNKEVYDFLASATAKYNMGFWKPGSGIIHQIVLENYAFPGALIIGTDSHTPNAGGLGQLAIGVGGADAVDVMAGRPWELKAPKILGVKLTGKMNGWTSPKDIILKLAGITTVKGGTGKIVEYFGDGVDTFSATGMGTICNMGAEIGATTSVFPFNKSMIEYLEATGRGKIADFAKLYHKDLLSADKDAEYDEVVEIDLNTLEPYINGPFTPDLATPVSKMKEVAVANNWPLDVRVGLIGSCTNSSYEDMSRSASIVKDAAAHGLKSKTIFTVTPGSEQIRATIERDGQLETFKEFGGIVLANACGPCIGQWDRRDIKKGDKNTIVSSYNRNFTSRNDGNPQTHAFVASPELVTAFAIAGDLRFNPLTDKLKDKDGNEFMLKPPHGDGLPQRGYDAGENTYQAPPADRSTVEVKVSPTSDRLQLLKPFKPWDGKDAKDMPILIKAVGKTTTDHISMAGPWLKYRGHLENISNNYMIGAINAENKKANCVKNVYTGEYKGVPDTARDYRDQGIKWVVIGDENFGEGSSREHAALEPRFLGGFAIITKSFARIHETNLKKQGLLPLNFKNPADYDKINPDDRIDILGLAELAPGKPVTMRVHPKNGKPWDAVLTHTFNDEQIEWFKYGSALNKIKADEKK

- binding [2]: binds
B8: SDH2 (protein, UniProt P21801 21-266)
chain: TATTAAATHTPRLKTFKVYRWNPDEPSAKPHLQSYQVDLNDCGPMVLDALLKIKDEQDSTLTFRRSCREGICGSCAMNIGGRNTLACICKIDQNESKQLKIYPLPHMFIVKDLVPDLTNFYQQYKSIQPYLQRSSFPKDGTEVLQSIEDRKKLDGLYECILCACCSTSCPSYWWNQEQYLGPAVLMQAYRWLIDSRDQATKTRKAMLNNSMSLYRCHTIMNCTRTCPKGLNPGLAIAEIKKSLAFA

- binding [7]: binds
B9: CBP6 (protein, UniProt P07253 1-162)
chain: MSSSQVVRDSAKKLVNLLEKYPKDRIHHLVSFRDVQIARFRRVAGLPNVDDKGKSIKEKKPSLDEIKSIINRTSGPLGLNKEMLTKIQNKMVDEKFTEESINEQIRALSTIMNNKFRNYYDIGDKLYKPAGNPQYYQRLINAVDGKKKESLFTAMRTVLFGK
